Measured values: PMC10700596 (Nature Communications, 2023)
No constants are given. Whether binding was seen depends on the method and setting. In cells and extracts the contact can be indirect. Some results given as binding are weak or reduced against the parent protein; the word gives no strength.

By UniProt entry, the sequences of proteins in these tests, tags left out.
UniProt P35408: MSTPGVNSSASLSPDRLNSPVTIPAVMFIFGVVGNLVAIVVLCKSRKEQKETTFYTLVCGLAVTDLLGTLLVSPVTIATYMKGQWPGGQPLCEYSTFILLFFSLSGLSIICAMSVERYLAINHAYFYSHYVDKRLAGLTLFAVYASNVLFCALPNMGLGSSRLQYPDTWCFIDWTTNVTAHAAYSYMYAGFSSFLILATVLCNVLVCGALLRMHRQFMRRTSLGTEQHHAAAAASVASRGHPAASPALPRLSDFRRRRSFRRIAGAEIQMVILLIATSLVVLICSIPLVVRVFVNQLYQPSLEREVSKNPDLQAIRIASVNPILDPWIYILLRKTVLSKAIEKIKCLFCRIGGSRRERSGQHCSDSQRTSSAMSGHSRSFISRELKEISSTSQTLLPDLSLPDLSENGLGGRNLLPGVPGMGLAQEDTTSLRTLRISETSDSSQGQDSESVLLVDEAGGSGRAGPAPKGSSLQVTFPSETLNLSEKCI
UniProt P32121: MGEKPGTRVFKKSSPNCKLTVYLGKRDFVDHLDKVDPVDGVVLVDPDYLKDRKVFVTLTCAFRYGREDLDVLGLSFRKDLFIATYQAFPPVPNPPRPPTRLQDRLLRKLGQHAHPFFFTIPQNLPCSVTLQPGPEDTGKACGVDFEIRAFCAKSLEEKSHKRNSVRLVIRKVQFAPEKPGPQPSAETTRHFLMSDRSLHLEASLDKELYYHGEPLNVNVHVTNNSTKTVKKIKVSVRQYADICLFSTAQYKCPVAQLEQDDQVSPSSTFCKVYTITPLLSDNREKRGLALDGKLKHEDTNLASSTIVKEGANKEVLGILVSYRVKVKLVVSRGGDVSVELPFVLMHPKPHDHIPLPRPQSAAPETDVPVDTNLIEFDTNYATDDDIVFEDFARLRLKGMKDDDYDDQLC

Molecular target: wild-type EP4R attached to Renilla luciferase (UniProt P35408)
Assay: FRET or BRET; HEK cells transfected with EP4R-RLuc and mVenus-β-arrestin2 at 1:6; PGE2 at its EC80 (8 nM), 5 µM coelenterazine h, at least 25 min incubation; assay buffer 20 mM HEPES, 1x Hank's balanced salt solution, pH 7.4; emission at 485 nm and 530 nm

**Q.** Which binding does the source give for “mVenus N-terminally modified human β-arrestin2 (from UniProt P32121 1-409)” here?
**A.** binds
